Experimental data reported in PMC8609358.
These are yes or no findings as the source states them, for the method shown. A result given as binding can be weak or reduced; the word gives no strength.

Amino acid sequences for entries named in this document (tags omitted). A change or cut given only in a name is not applied to a line headed by its entry.
UniProt O51305: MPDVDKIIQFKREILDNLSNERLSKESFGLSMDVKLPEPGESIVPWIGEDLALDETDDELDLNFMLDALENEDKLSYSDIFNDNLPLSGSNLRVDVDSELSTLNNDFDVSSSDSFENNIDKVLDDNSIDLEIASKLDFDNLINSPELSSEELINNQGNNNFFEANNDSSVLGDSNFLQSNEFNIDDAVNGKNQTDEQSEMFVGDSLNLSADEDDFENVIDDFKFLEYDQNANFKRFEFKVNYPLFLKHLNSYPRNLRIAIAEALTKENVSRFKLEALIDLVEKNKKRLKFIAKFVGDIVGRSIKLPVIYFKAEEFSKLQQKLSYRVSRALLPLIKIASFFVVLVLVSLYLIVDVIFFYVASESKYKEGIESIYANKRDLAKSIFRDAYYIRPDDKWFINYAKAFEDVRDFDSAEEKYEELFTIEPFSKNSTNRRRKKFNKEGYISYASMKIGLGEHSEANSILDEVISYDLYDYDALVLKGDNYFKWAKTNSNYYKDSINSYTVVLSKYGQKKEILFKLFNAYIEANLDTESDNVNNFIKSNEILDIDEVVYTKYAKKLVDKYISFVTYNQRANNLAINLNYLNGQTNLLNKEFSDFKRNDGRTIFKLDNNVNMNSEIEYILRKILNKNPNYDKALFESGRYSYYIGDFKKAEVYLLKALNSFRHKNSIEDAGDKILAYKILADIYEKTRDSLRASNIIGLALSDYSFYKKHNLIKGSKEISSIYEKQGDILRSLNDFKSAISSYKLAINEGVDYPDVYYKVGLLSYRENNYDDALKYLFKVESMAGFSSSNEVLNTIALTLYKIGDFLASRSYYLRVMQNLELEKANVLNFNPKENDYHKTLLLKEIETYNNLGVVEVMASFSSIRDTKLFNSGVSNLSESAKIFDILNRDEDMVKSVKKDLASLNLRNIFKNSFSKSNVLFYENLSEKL

Biological target: MBP-MotB (B. burgdorferi) (UniProt Q57371)
Assay: far-Western, overlay or dot blot; 1 μg purified MBP-tagged protein run on SDS-PAGE and transferred to PVDF; blocked in 5% skim milk, 10 mM Tris, 150 mM NaCl, 0.3% Tween 20 pH 7.4; incubated overnight with purified 1×FLAG-tagged protein at 2 μg/ml; detected with anti-FLAG M2; both purified

- binding: binds
Substance: 1×FLAG-tagged FlcA (BB0326), C terminus aa 360 to 931 (from UniProt O51305) (domain or fragment)
